According to PMC10644093:
These are yes or no findings as the source states them, for the method shown. Binding seen in cells or lysates may run through a third protein.

Protein sequences, listed by entry. Tags and fused reporters are not part of them. Residues count along the entry.
UniProt P9WGT7, residues 23-370: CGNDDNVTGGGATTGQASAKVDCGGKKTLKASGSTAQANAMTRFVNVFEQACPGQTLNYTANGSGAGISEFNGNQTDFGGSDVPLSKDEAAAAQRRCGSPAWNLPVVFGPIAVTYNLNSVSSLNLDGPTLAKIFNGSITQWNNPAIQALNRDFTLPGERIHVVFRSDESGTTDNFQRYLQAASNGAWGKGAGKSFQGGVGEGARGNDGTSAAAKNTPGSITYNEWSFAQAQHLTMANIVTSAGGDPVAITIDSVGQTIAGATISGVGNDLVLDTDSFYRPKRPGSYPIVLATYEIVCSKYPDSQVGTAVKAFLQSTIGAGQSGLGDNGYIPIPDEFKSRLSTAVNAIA
UniProt P21796: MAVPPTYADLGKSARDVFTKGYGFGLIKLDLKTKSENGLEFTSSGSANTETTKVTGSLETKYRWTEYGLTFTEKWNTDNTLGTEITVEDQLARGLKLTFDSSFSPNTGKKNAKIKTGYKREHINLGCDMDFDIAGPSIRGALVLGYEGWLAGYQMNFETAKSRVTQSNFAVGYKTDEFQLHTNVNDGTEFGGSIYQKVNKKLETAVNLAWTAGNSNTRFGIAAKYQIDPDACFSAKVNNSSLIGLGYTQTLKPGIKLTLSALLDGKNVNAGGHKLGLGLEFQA

Target: HA-tagged Mycobacterium tuberculosis Rv0928 protein (pHA-Rv0928) (Mycobacterium tuberculosis H37Rv) (UniProt P9WGT7)
Assay: co-IP

voltage-dependent anion channel 1 (VDAC1) (from UniProt P21796 1-283)
binding: no binding
